Results taken from patent US5422353A, “Tetrahydropyridine derivatives” (Boehringer Ingelheim KG, priority 1988, dated 1995).
At least one structure is not confirmed: it was looked up by name or label, or the drawing left a doubt.

Tests used:
muscarinic receptors = assay: Receptor binding studies (radioligand L(+)cis-[2-methyl-3H]-N,N,N-trimethyl-1,3-dioxolan-4-methanammonium-iodide, NET-647); details: cerebral cortex (rat); radioligand NET-647; tested as maleate (MA) or oxalate (OX) salt
Method: The compounds of formulae I and Ia have valuable pharmacological properties. Thus, in bonding studies, they show affinities with muscarinic receptors and muscarbin-agonistic GTP-shifts (GTP=guanosintriphosphate). (Birdshall, N. I. M., E. C. Hulme and J. M. Stockton 1984 in T.I.P.S. Supplement, Proc. Internat. Symposium on Subtypes of Muscarinic Receptors, Ed. Hirschowitz, Hammer, Giacchetti, Keirns, Levine; Elsevier p. 4-8).
The receptor binding studies were carried out according to: A. Closse, H. Bittiger, D. Langenegger and A. Wanner, Naunyn-Schmiedeberg's Arch. Pharmacol. 335, 372-377 (1987).
Receptor binding studies
L(+)cis-[2-methyl-^3 H]-N,N,N-trimethyl-
1,3-dioxolan-4-methanammonium-iodide
NET-647, Messrs. NEN (New England
Organ: Cerebral cortex (rat)

conscious rabbit = assay: arousal reaction in the EEG (electroencephalograph) of a conscious rabbit; format: in vivo; details: 1 mg/kg and 3 mg/kg i.v.

## COCC1=CCN(C)CC1 [Example 1, 4-Methoxymethyl-1-methyl-1,2,3,6-tetrahydropyridine]
Muscarinic receptors
  Ki: 337 nM
Conscious rabbit
  arousal reaction typical of cholinomimetics in the EEG: exhibit an arousal reaction typical of cholinomimetics
